Reference: publication PMC8811898, “Structural Insights into Methylated DNA Recognition by the Methyl-CpG Binding Domain of MBD6 from Arabidopsis thaliana”
These are yes or no findings as the source states them, for the method shown.

Molecular target: MBD domain of AtMBD6 (residues 78-140) (Arabidopsis thaliana) (UniProt Q9LTJ1)
Assay: NMR dilution series (1H-15N HSQC backbone amide chemical shifts); two-fold serial dilutions of 13C,15N-labeled protein from 200 to 3.1 uM; titration buffer 20 mM sodium phosphate pH 6.5, 150 mM sodium chloride; 20 °C; both purified

binding: no binding (tested: 200 μM)
B1: MBD domain of AtMBD6 (residues 78-140) (domain or fragment, UniProt Q9LTJ1 78-140)
chain: GPLGSDNWLPPGWRVEDKIRTSGATAGSVDKYYYEPNTGRKFRSRTEVLYYLEHGTSKRGTKKAENTY
modifications: 13C, 15N-labeled
